Measurements as given in patent US20240199757A1.

Biological target: NT5E dimer (cryo-EM complex with Fab32)
Experiment: cryo-EM structure of the complex

B1: 1789 AM32 Fab (Fab, V domains shown)
VH: EVQLVESGGGLVQPGGSLRLSCAASGFNVSYSSIHWVRQAPGKGLEWVARIRGNEGDTYYADSVKGRFTISADTSKNTAYLQMNSLRAEDTAVYYCARNYWGWYPFYYFAFDYWGQGTLVTV
VL: DIQMTQSPSSLSASVGDRVTITCRASQSVSSAVAWYQQKPGKAPKLLIYSASSLYSGVPSRFSGSRSGTDFTLTISSLQPEDFATYYCQQGWDYPITFGQGTKVEIKR
- binding: binds

Results are given in words; binding and its absence hold for the method and conditions named. Binding can be weak; no strength is given.
